According to PMC3182920:
Results are given in words; binding and its absence hold for the method and conditions named. A result given as binding can be weak or reduced; the word gives no strength. Tags and fused reporters may be left off the sequences shown.

Biological target: T1, nectin-1 V-domain fused to maltose binding protein (N1V-MBP), wild type (human) (UniProt Q15223)
T1 sequence: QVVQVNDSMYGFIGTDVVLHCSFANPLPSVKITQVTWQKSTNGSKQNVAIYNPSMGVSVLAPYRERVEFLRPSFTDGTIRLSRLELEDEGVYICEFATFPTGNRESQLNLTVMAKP
Assay: ELISA; N1V-MBP proteins immobilised on a 96 well plate (10 µg/ml in PBS, overnight at 4°C); purified gD serially diluted in PBS-T milk; bound gD detected with polyclonal rabbit serum R8; both purified

## HSV-1 glycoprotein D ectodomain truncated at residue 306 (gD306t) (herpes simplex virus type 1) (domain or fragment)
  binding: binds
